Measurements reported in PubChem BioAssay AID743121 (NCATS, 2013).
Shown is one part, drawn at random, of about 26,000 deposited reagents. 167 of them (0.63%) count as active. 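Calls are per gene from RSA p-values that are not deposited; an individual active-marked siRNA can sensitise only weakly.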 Further read-outs or replicates are left out here.

- Assay: 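Partners whose loss is lethal together with topoisomerase I blockade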 (primary screen)
- Cells: MDA-MB-231 cells, a human breast cancer line
- Reagents: single siRNA against human genes, 20 nM siRNA (0.8 pmol per well)
- Timing: 120 h (drug added 48 h after transfection, read 72 h later)
- Challenge: camptothecin 20 nM (about EC30) for 72 h; vehicle 0.1% DMSO in parallel plates
- Measured: 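Cell viability by ATP luminescence (CellTiter-Glo) as % of non-targeting siRNA wells, and the log2 ratio of viability without drug over viability with camptothecin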
- Direction: log2 vehicle/camptothecin viability: higher = stronger sensitisation to camptothecin
- Hit rule: 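Active genes have an RSA gene-level p-value below 0.001, computed from the ratios of their separate siRNAs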

ALS2 (GeneID 57679) [SID164495723] showed log2 vehicle/camptothecin viability -0.33; inactive.
Knock-down of ALS2 (GeneID 57679) [SID164495724] resulted in: log2 vehicle/camptothecin viability 0.442; inactive.
Knock-down of ALS2 (GeneID 57679) [SID164495730] resulted in: log2 vehicle/camptothecin viability -0.412; inactive.
Silencing of ALS2 (GeneID 57679) [SID164495731] resulted in: log2 vehicle/camptothecin viability -0.0225; inactive.
Against CMKLR1 (GeneID 1240) [SID164358927], the values are log2 vehicle/camptothecin viability -0.0559; inactive.
CMKLR1 (GeneID 1240) [SID164358928] showed log2 vehicle/camptothecin viability -0.181; inactive.
With knock-down of CMKLR1 (GeneID 1240) [SID164358929], the screen gave log2 vehicle/camptothecin viability -0.03; inactive.
For CMKLR1 (GeneID 1240) [SID164358930], the entry reads log2 vehicle/camptothecin viability -0.184; inactive.
FBN2 (GeneID 2201) [SID164364382] scored log2 vehicle/camptothecin viability 0.0101; inactive.
FBN2 (GeneID 2201) [SID164364383] scored log2 vehicle/camptothecin viability -0.321; inactive.
For FBN2 (GeneID 2201) [SID164364385], the values are log2 vehicle/camptothecin viability -0.0917; inactive.
With knock-down of FBN2 (GeneID 2201) [SID164364386] the results were log2 vehicle/camptothecin viability -0.7; inactive.
Silencing of HEXB (GeneID 3074) [SID164368774] came out at: log2 vehicle/camptothecin viability -0.118; inactive.
For HEXB (GeneID 3074) [SID164368775], the entry reads log2 vehicle/camptothecin viability -0.126; inactive.
HEXB (GeneID 3074) [SID164368776] scored log2 vehicle/camptothecin viability -0.376; inactive.
For HEXB (GeneID 3074) [SID164368777], the values are log2 vehicle/camptothecin viability -0.409; inactive.
ESR1 (GeneID 2099) [SID164363755] gave log2 vehicle/camptothecin viability -0.145; inactive.
For ESR1 (GeneID 2099) [SID164363756], the entry reads log2 vehicle/camptothecin viability -0.563; inactive.
With knock-down of ESR1 (GeneID 2099) [SID164363758] the results were log2 vehicle/camptothecin viability -0.00647; inactive.
Depletion of ESR1 (GeneID 2099) [SID164363759] gave: log2 vehicle/camptothecin viability -0.282; inactive.
For PAQR5 (GeneID 54852) [SID164480948] the deposit lists log2 vehicle/camptothecin viability 0.134; inactive.
Silencing of PAQR5 (GeneID 54852) [SID164480952] came out at: log2 vehicle/camptothecin viability 0.232; inactive.
With knock-down of PAQR5 (GeneID 54852) [SID164480954], the record shows log2 vehicle/camptothecin viability -0.0824; inactive.
Knock-down of MYBPC3 (GeneID 4607) [SID164376629] came out at: log2 vehicle/camptothecin viability -0.308; inactive.
Against MYBPC3 (GeneID 4607) [SID164376631] the deposit lists log2 vehicle/camptothecin viability 0.0201; inactive.
Silencing of MYBPC3 (GeneID 4607) [SID164376632] came out at: log2 vehicle/camptothecin viability -0.0709; inactive.
MYBPC3 (GeneID 4607) [SID164376634] showed log2 vehicle/camptothecin viability 0.0407; inactive.

As entered above:
HEXB (GeneID 3074) [SID164368776], activity call: inactive
For “activity call”, MYBPC3 (GeneID 4607) [SID164376631] shows inactive
Entry of PAQR5 (GeneID 54852) [SID164480948] under “activity call”: inactive
MYBPC3 (GeneID 4607) [SID164376634], log2 vehicle/camptothecin viability: 0.0407

The list goes on:
For NEK9 (GeneID 91754) [SID164551353] the deposit lists log2 vehicle/camptothecin viability -1.21; inactive.
NEK9 (GeneID 91754) [SID164551354] showed log2 vehicle/camptothecin viability -0.0806; inactive.
With knock-down of NEK9 (GeneID 91754) [SID164551359] the results were log2 vehicle/camptothecin viability -0.192; inactive.
For USP43 (GeneID 124739) [SID164567211], the entry reads log2 vehicle/camptothecin viability -0.00314; inactive.
USP43 (GeneID 124739) [SID164567216] gave log2 vehicle/camptothecin viability -0.315; inactive.
Against USP43 (GeneID 124739) [SID164567219] the deposit lists log2 vehicle/camptothecin viability -0.149; inactive.
LPAR1 (GeneID 1902) [SID164362590] scored log2 vehicle/camptothecin viability -0.502; inactive.
LPAR1 (GeneID 1902) [SID164362595] showed log2 vehicle/camptothecin viability -0.547; inactive.
LPAR1 (GeneID 1902) [SID164362596] showed log2 vehicle/camptothecin viability 0.121; inactive.
Knock-down of LPAR1 (GeneID 1902) [SID164362597] resulted in: log2 vehicle/camptothecin viability -0.222; inactive.
Depletion of ENC1 (GeneID 8507) [SID164398055] came out at: log2 vehicle/camptothecin viability 0.197; inactive.
Depletion of ENC1 (GeneID 8507) [SID164398058] gave: log2 vehicle/camptothecin viability -0.834; inactive.
FFAR1 (GeneID 2864) [SID164367458] showed log2 vehicle/camptothecin viability 0.688; inactive.
FFAR1 (GeneID 2864) [SID164367460] gave log2 vehicle/camptothecin viability -0.447; inactive.
After knock-down of FFAR1 (GeneID 2864) [SID164367461] the results were log2 vehicle/camptothecin viability -0.146; inactive.
Silencing of FFAR1 (GeneID 2864) [SID164367462] came out at: log2 vehicle/camptothecin viability 0.0545; inactive.
After knock-down of G3BP2 (GeneID 9908) [SID164407314], the screen gave log2 vehicle/camptothecin viability -0.631; inactive.
Against G3BP2 (GeneID 9908) [SID164407316], the entry reads log2 vehicle/camptothecin viability 0.0555; inactive.
After knock-down of G3BP2 (GeneID 9908) [SID164407319], the screen gave log2 vehicle/camptothecin viability 0.236; inactive.
For G3BP2 (GeneID 9908) [SID164407320], the entry reads log2 vehicle/camptothecin viability -0.197; inactive.
